The target in this assay is PIBF1, endogenous in mouse germ cell lines (mouse (endogenous in GC1 and GC2)). The experiment in a line: co-IP; GC1 and GC2 cell lysates incubated with anti-PIBF1 antibody, anti-PCM1 antibody or rabbit IgG; endogenous USO1 detected in the precipitate.

These are yes or no findings as the source states them, for the method shown. In cells and extracts the contact can be indirect. Binding can be weak; no strength is given.

B1: USO1 vesicle transport factor (USO1), endogenous in mouse germ cell lines (protein, UniProt Q9Z1Z0 1-959)
chain: MNFLRGVMGGQSAGPQHTEAETIQKLCDRVASSTLLDDRRNAVRALKSLSKKYRLEVGIQAMEHLIHVLQTDRSDSEIIAYALDTLYNIISNDEEEELEENSTRQSEDLGSQFTEIFIKQPENVTLLLSLLEEFDFHVRWPGVRLLTSLLKQLGPPVQQIILVSPMGVSRLMDLLADSREIIRNDGVLLLQALTRSNGAIQKIVAFENAFERLLDIITEEGNSDGGIVVEDCLILLQNLLKTNNSNQNFFKEGSYIQRMKPWFEVGEENSGWSAQKVTNLHLMLQLVRVLVSPTNPPGATSSCQKAMFQCGLLQQLCTILMATGIPADILTETINTVSEVIRGCQVNQDYFASVNAPSNPPRPAIVVLLMSMVNERQPFVLRCAVLYCFQCFLYKNEKGQGEIVATLLPSTIDATGNSVSAGQLLCGGLFSTDSLSNWCAAVALAHALQGNATQKEQLLRVQLATSIGNPPVSLLQQCTNILSQGSKIQTRVGLLMLLCTWLSNCPIAVTHFLHNSANVPFLTGQIAENLGEEEQLVQGLCALLLGISIYFNDNSLENYTKEKLKQLIEKRIGKENFIEKLGFISKHELYSRASQKPQPNFPSPEYMIFDHEFTKLVKELEGVITKAIYKSSEEDKKEEEVKKTLEQHDNIVTHYKNMIREQDLQLEELKQQVSTLKCQNEQLQTAVTQQASQIQQHKDQYNLLKVQLGKDNHHQGSHGDGAQVNGIQPEEISRLREEIEELKSQQALLQGQLAEKDSLIENLKSSQASGMSEQASATCPPRDPEQVAELKQELTALKSQLCSQSLEITRLQTENCELLQRAETLAKSVPVEGESEHVSAAKTTDVEGRLSALLQETKELKNEIKALSEERTAIQKQLDSSNSTIAILQTEKDKLDLEVTDSKKEQDDLLVLLADQDQKILSLKSKLKDLGHPVEEEDESGDQEDDDDEIDDGDKDQDI
Regarding B1, the binding result was “binds”.

Values taken from PMC12072129.
